{"source": "PubChem BioAssay AID686938, Drosophila RNAi Screening Center – 2013", "test": "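Fly genes required for calcium entry once internal stores are emptied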 (primary screen)", "system": "Drosophila S2R+ cells", "knock-down reagent": "long dsRNA against Drosophila genes, about 0.25 µg dsRNA per well, roughly 10,000 cells", "time to read-out": "5 days of knock-down before the calcium assay", "challenge": "thapsigargin (SERCA pump blocker) to empty calcium stores; entry signal taken 4 min after adding it", "read-out": "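Duplicate raw fluo-4 intensities per well from a plate reader, at rest and four minutes after thapsigargin emptied calcium stores; entry-to-rest ratio filled for only some wells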", "direction": "calcium entry signal: higher = stronger calcium signal after store depletion; resting calcium signal: higher = higher resting calcium signal", "units": "calcium entry signal in fluorescence units; resting calcium signal in fluorescence units", "hit rule": "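Called when the plate z-score of the entry-to-rest ratio, mean of duplicates, falls below −3; wells with low overall dye signal (Fmax z below −2) or more than five off-targets excluded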", "meaning of the calls": "active = strongly reduced calcium entry; inactive = no strong reduction", "note": "The deposit covers about 23,000 reagents; below is a random part of those with a known target gene and a result. In the full data, 75 (0.33%) were called active. 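Raw plate signals without normalisation; calls rest on plate z-scores that were not deposited; ratio present for only 364 wells.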 A plus sign joins genes that one reagent is predicted to hit. No sequences are given here. The record does not give: the dose of the treatment."}
{"gene knocked down":"CG6051 (GeneID 43271)","amplicon":"DRSC15956","calcium entry signal, replicate 1":4.06e7,"calcium entry signal, replicate 2":4.89e7,"resting calcium signal, replicate 1":2.07e7,"resting calcium signal, replicate 2":2.25e7,"call":"inactive"}
{"gene knocked down":"Tom40 (GeneID 44978)","amplicon":"DRSC18796","calcium entry signal, replicate 1":2.33e7,"calcium entry signal, replicate 2":1.80e7,"resting calcium signal, replicate 1":1.25e7,"resting calcium signal, replicate 2":1.09e7,"call":"inactive"}
{"gene knocked down":"Rh4 + sina","amplicon":"DRSC11396","calcium entry signal, replicate 1":2.28e7,"calcium entry signal, replicate 2":3.50e7,"resting calcium signal, replicate 1":1.16e7,"resting calcium signal, replicate 2":2.49e7,"call":"inactive"}
{"gene knocked down":"qsm (GeneID 47065)","amplicon":"DRSC05896","calcium entry signal, replicate 1":2.41e7,"calcium entry signal, replicate 2":3.36e7,"resting calcium signal, replicate 1":1.16e7,"resting calcium signal, replicate 2":1.63e7,"call":"inactive"}
{"gene knocked down":"qsm (GeneID 47065)","amplicon":"DRSC06393","calcium entry signal, replicate 1":1.74e7,"calcium entry signal, replicate 2":3.17e7,"resting calcium signal, replicate 1":1.01e7,"resting calcium signal, replicate 2":1.45e7,"call":"inactive"}
{"gene knocked down":"veil (GeneID 36968)","amplicon":"DRSC06892","calcium entry signal, replicate 1":3.00e7,"calcium entry signal, replicate 2":2.52e7,"resting calcium signal, replicate 1":1.53e7,"resting calcium signal, replicate 2":1.25e7,"call":"inactive"}
{"gene knocked down":"CG6503 (GeneID 50079)","amplicon":"DRSC16056","calcium entry signal, replicate 1":3.90e7,"calcium entry signal, replicate 2":4.58e7,"resting calcium signal, replicate 1":2.00e7,"resting calcium signal, replicate 2":2.20e7,"call":"inactive"}
{"gene knocked down":"CG34282 (GeneID 42248)","amplicon":"DRSC16298","calcium entry signal, replicate 1":3.43e7,"calcium entry signal, replicate 2":4.15e7,"resting calcium signal, replicate 1":6.28e7,"resting calcium signal, replicate 2":1.78e7,"call":"inactive"}
{"gene knocked down":"CG11509 (retired record) (GeneID 31115)","amplicon":"DRSC17788","calcium entry signal, replicate 1":2.08e7,"calcium entry signal, replicate 2":2.26e7,"resting calcium signal, replicate 1":9.96e6,"resting calcium signal, replicate 2":1.26e7,"call":"inactive"}
{"gene knocked down":"CG7300 (GeneID 34472)","amplicon":"DRSC03044","calcium entry signal, replicate 1":4.46e7,"resting calcium signal, replicate 1":2.07e7,"call":"inactive"}
{"gene knocked down":"CG5068 (GeneID 39032)","amplicon":"DRSC10476","calcium entry signal, replicate 1":3.98e7,"calcium entry signal, replicate 2":3.17e7,"resting calcium signal, replicate 1":2.79e7,"resting calcium signal, replicate 2":1.48e7,"call":"inactive"}
{"gene knocked down":"VAChT + ChAT","amplicon":"DRSC13312","calcium entry signal, replicate 1":3.45e7,"calcium entry signal, replicate 2":3.38e7,"resting calcium signal, replicate 1":1.90e7,"resting calcium signal, replicate 2":1.57e7,"call":"inactive"}
{"gene knocked down":"RpL37A (GeneID 44783)","amplicon":"DRSC02899","calcium entry signal, replicate 1":2.14e7,"calcium entry signal, replicate 2":2.39e7,"resting calcium signal, replicate 1":1.30e7,"resting calcium signal, replicate 2":1.34e7,"call":"inactive"}
{"gene knocked down":"CG5157 (GeneID 39771)","amplicon":"DRSC10488","calcium entry signal, replicate 1":3.51e7,"calcium entry signal, replicate 2":5.18e7,"resting calcium signal, replicate 1":1.74e7,"resting calcium signal, replicate 2":1.93e7,"call":"inactive"}
{"gene knocked down":"CG15044 (GeneID 32834)","amplicon":"DRSC19620","calcium entry signal, replicate 1":3.68e7,"calcium entry signal, replicate 2":3.16e7,"resting calcium signal, replicate 1":1.89e7,"resting calcium signal, replicate 2":1.52e7,"call":"inactive"}
{"gene knocked down":"CG15044 (GeneID 32834)","amplicon":"DRSC21385","calcium entry signal, replicate 1":4.02e7,"calcium entry signal, replicate 2":3.09e7,"resting calcium signal, replicate 1":2.29e7,"resting calcium signal, replicate 2":1.53e7,"call":"inactive"}
{"gene knocked down":"M6 (GeneID 40383)","amplicon":"DRSC11869","calcium entry signal, replicate 1":2.76e7,"calcium entry signal, replicate 2":4.59e7,"resting calcium signal, replicate 1":1.28e7,"resting calcium signal, replicate 2":1.87e7,"call":"inactive"}
{"gene knocked down":"Obp56f (GeneID 246668)","amplicon":"DRSC22270","calcium entry signal, replicate 1":2.48e7,"calcium entry signal, replicate 2":3.59e7,"resting calcium signal, replicate 1":1.26e7,"resting calcium signal, replicate 2":1.89e7,"call":"inactive"}
{"gene knocked down":"eys (GeneID 3771890)","amplicon":"DRSC00113","calcium entry signal, replicate 1":2.80e7,"calcium entry signal, replicate 2":3.42e7,"resting calcium signal, replicate 1":1.66e7,"resting calcium signal, replicate 2":1.53e7,"call":"inactive"}
{"gene knocked down":"eys (GeneID 3771890)","amplicon":"DRSC00402","calcium entry signal, replicate 1":3.63e7,"calcium entry signal, replicate 2":3.96e7,"resting calcium signal, replicate 1":1.88e7,"resting calcium signal, replicate 2":1.72e7,"call":"inactive"}
{"gene knocked down":"eys (GeneID 3771890)","amplicon":"DRSC00403","calcium entry signal, replicate 1":3.27e7,"calcium entry signal, replicate 2":3.62e7,"resting calcium signal, replicate 1":1.55e7,"resting calcium signal, replicate 2":1.67e7,"call":"inactive"}
{"gene knocked down":"eys (GeneID 3771890)","amplicon":"DRSC00695","calcium entry signal, replicate 1":4.55e7,"resting calcium signal, replicate 1":2.14e7,"call":"inactive"}

2 of these entries, reformatted:
gene knocked down | amplicon | calcium entry signal, replicate 1 | calcium entry signal, replicate 2 | resting calcium signal, replicate 1 | resting calcium signal, replicate 2 | call
qsm (GeneID 47065) | DRSC06393 | 1.74e7 | 3.17e7 | 1.01e7 | 1.45e7 | inactive
veil (GeneID 36968) | DRSC06892 | 3.00e7 | 2.52e7 | 1.53e7 | 1.25e7 | inactive
